According to patent US20140073611A1, “METHODS FOR DRUG SCREEN USING ZEBRAFISH MODEL AND THE COMPOUNDS SCREENED THEREFROM” (National Taiwan University, priority 2012, published 2014):
Where a name gives a salt, the structure may show the parent alone. The name of at least one read-out is uncertain. For at least one compound, name, drawing or mass did not settle the structure.

System: lumican knockdown zebrafish (zLum-MO)
Assay: Drug screen in lumican (zLum-MO) knockdown zebrafish: big eye ratio / scleral coat enlargement
Assay type: in vivo
Conditions: for outcome of the screen of about 30 drugs: lumican knockdown zebrafish model
Procedure: The term “big eye” denotes that an eye with a value of the axial length of the retinal pigmented epithelium layer divided by the axial length of the scleral coat is less than 0.7.
According to the disclosure, the knockdown zebrafish are exposed to a test compound at the optic cup formation stage thereof. Generally, at around 24 hours after fertilization, the optic cup of zebrafish is formed. The knockdown zebrafish can be exposed to the test compound at the optic cup formation stage. After contacting the knockdown zebrafish with the test compound, the test compound, if it is a potential candidate, may start to activate the expression of lumican and collagen fibrillogenesis, thereby decreasing the enlargement of eyeball and treating and/or preventing myopia and/or keratoconus disease. Retina lenses are established around 48 hours after fertilization, and the sclera and cornea are established around 72 hours after fertilization. At sclera and cornea establishment stage, the zebrafish are collected.
Big eye in a zebrafish is an indicator of myopia. As used herein, a “big eye” refers to an eye with an enlarged axial length of eyeball and denotes the value of the axial length of the retinal pigmented epithelium layer divided by the axial length of the scleral coat less than 0.7. The axial length of a retinal pigmented epithelium layer and the axial length of a scleral coat can be measured by any method known in the art—for example, dissecting microscopy.
The test compound can be identified as a candidate compound affecting the expression of lumican and/or collagen fibrillogenesis and/or regulation of eyeball size, and/or treating and/or preventing myopia and/or keratoconus disease if the ratio of the number of big eyes decreases relative to the total number of eyes in zebrafish or that of big eyes in control zebrafish that is not contacted with the test compound. […] Preferably, the ratio is less than 15%. […]

Structure (SMILES)	outcome of the screen of about 30 drugs	Big eye rate(%) (lumican knockdown zebrafish, big eye = RPE/scleral coat axial length < 0.7, Conc.: Atropine 0.50%, Tropicamide 1 mM, Ipratropium 50 mM, Oxybutynin 2 uM, Scopolamine 100 uM, Pirenzepine 0.25%, SB 431542 25 uM, Tamoxifen 20 uM, Doxycycline 100 ppm, Genistein 25 uM, Marimastat 50 uM, Taurine 0.2M, Minocycline 50 uM, n-acetylcysteine 10 uM, Aspirin 50 mg/L, Propofol 0.5 mM, SP600125 2.5 uM, Zileuton 1)
C[C@H]1c2cccc(O)c2C(=O)C2=C(O)[C@]3(O)C(=O)C(C(N)=O)=C(O)[C@@H](N(C)C)[C@@H]3[C@@H](O)[C@@H]21 [Doxycycline hyclate]	effective candidate compounds	–
O=c1c(-c2ccc(O)cc2)coc2cc(O)cc(O)c12 [Genistein]	–	36.2
CN(C)c1ccc(O)c2c1C[C@H]1C[C@H]3[C@H](N(C)C)C(O)=C(C(N)=O)C(=O)[C@@]3(O)C(O)=C1C2=O [Minocycline hydrochloride]	effective candidate compounds	–
